{"source": "PubChem BioAssay AID504784 | Drosophila RNAi Screening Center, 2011", "screen": "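Genome-wide knock-down for genes giving too much or too little stored lipid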 (primary screen)", "cell system": "Drosophila Kc167 embryonic cells", "knock-down reagent": "long dsRNA against Drosophila genes, about 250 ng dsRNA per well", "time to read-out": "4 days", "challenge": "cells fed 400 µM oleic acid bound to BSA", "detection": "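Microscope images give a droplet-to-nucleus area ratio, taken as log and converted to a screen-wide B-score; higher values mean greater lipid storage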", "scale": "droplet/nuclear area B-score: higher = more stored lipid (overstorage)", "note": "In all, the deposit lists about 17,000 reagents; shown is a random part of those that have a named target and a result. 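Each column is one replicate's B-score; the combined score over replicates was not deposited, so single values may mislead.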 A plus sign joins genes that one reagent is predicted to hit. Not all columns of the deposit are shown. Reagent sequences are not shown."}
{"target gene": "CG18190", "amplicon": "DRSC06714", "droplet/nuclear area B-score, replicate 1": -0.605}
{"target gene": "Hydr2", "amplicon": "DRSC00607", "droplet/nuclear area B-score, replicate 1": -0.0133}
{"target gene": "NELF-B", "amplicon": "DRSC17734", "droplet/nuclear area B-score, replicate 1": -0.459}
{"target gene": "Eaf", "amplicon": "DRSC05050", "droplet/nuclear area B-score, replicate 1": -0.724}
{"target gene": "Eaf", "amplicon": "DRSC06052", "droplet/nuclear area B-score, replicate 1": -1.77}
{"target gene": "Eaf", "amplicon": "DRSC22028", "droplet/nuclear area B-score, replicate 1": -1.28}
{"target gene": "Gr23a", "amplicon": "DRSC00410", "droplet/nuclear area B-score, replicate 1": -0.868}
{"target gene": "CG7453", "amplicon": "DRSC20046", "droplet/nuclear area B-score, replicate 1": -0.402}
{"target gene": "CG14811", "amplicon": "DRSC17962", "droplet/nuclear area B-score, replicate 1": -0.677}
{"target gene": "CG10681", "amplicon": "DRSC09777", "droplet/nuclear area B-score, replicate 1": -3.7}
{"target gene": "CG10681", "amplicon": "DRSC21484", "droplet/nuclear area B-score, replicate 1": -0.279}
{"target gene": "msk", "amplicon": "DRSC11340", "droplet/nuclear area B-score, replicate 1": 1.42}
{"target gene": "salto", "amplicon": "DRSC06291", "droplet/nuclear area B-score, replicate 1": 0.012}
{"target gene": "Nmda1", "amplicon": "DRSC07479", "droplet/nuclear area B-score, replicate 1": -0.578}
{"target gene": "Obp73a", "amplicon": "DRSC09907", "droplet/nuclear area B-score, replicate 1": 0.303}
{"target gene": "Ten-a", "amplicon": "DRSC18924", "droplet/nuclear area B-score, replicate 1": 0.518}
{"target gene": "Ten-a", "amplicon": "DRSC19496", "droplet/nuclear area B-score, replicate 1": -0.0584}
{"target gene": "Ten-a", "amplicon": "DRSC19700", "droplet/nuclear area B-score, replicate 1": 0.476}
{"target gene": "Ten-a", "amplicon": "DRSC19793", "droplet/nuclear area B-score, replicate 1": 0.00765}
{"target gene": "Ten-a", "amplicon": "DRSC19864", "droplet/nuclear area B-score, replicate 1": 0.327}
{"target gene": "Ten-a", "amplicon": "DRSC19865", "droplet/nuclear area B-score, replicate 1": 1.03}
{"target gene": "Ten-a", "amplicon": "DRSC20290", "droplet/nuclear area B-score, replicate 1": -1.97}
{"target gene": "Ten-a", "amplicon": "DRSC21461", "droplet/nuclear area B-score, replicate 1": -1.55}
{"target gene": "Ten-a", "amplicon": "DRSC23016", "droplet/nuclear area B-score, replicate 1": -3.35}
{"target gene": "CG15403", "amplicon": "DRSC00417", "droplet/nuclear area B-score, replicate 1": 1.2}
{"target gene": "CG6656", "amplicon": "DRSC16085", "droplet/nuclear area B-score, replicate 1": -1.82}
{"target gene": "narya", "amplicon": "DRSC19439", "droplet/nuclear area B-score, replicate 1": -2.11}
{"target gene": "CG10211", "amplicon": "DRSC02027", "droplet/nuclear area B-score, replicate 1": -0.662}
{"target gene": "CG31957", "amplicon": "DRSC00207", "droplet/nuclear area B-score, replicate 1": -0.819}
{"target gene": "CG9467", "amplicon": "DRSC16498", "droplet/nuclear area B-score, replicate 1": -0.0364}
{"target gene": "Cpr57A + Obp57d", "amplicon": "DRSC06708", "droplet/nuclear area B-score, replicate 1": -1.35}
{"target gene": "Cpr57A + Obp57d", "amplicon": "DRSC22719", "droplet/nuclear area B-score, replicate 1": -0.628}
{"target gene": "sun", "amplicon": "DRSC20140", "droplet/nuclear area B-score, replicate 1": 0.0856}
{"target gene": "CG4709", "amplicon": "DRSC02772", "droplet/nuclear area B-score, replicate 1": -1.83}
{"target gene": "mtrm", "amplicon": "DRSC10322", "droplet/nuclear area B-score, replicate 1": 2.03}
{"target gene": "mtrm", "amplicon": "DRSC23076", "droplet/nuclear area B-score, replicate 1": -0.347}
{"target gene": "CG31975 + ovm", "amplicon": "DRSC00323", "droplet/nuclear area B-score, replicate 1": -1.25}
{"target gene": "CG7606", "amplicon": "DRSC16268", "droplet/nuclear area B-score, replicate 1": -0.877}
{"target gene": "CCAP-R", "amplicon": "DRSC14891", "droplet/nuclear area B-score, replicate 1": -1.19}
{"target gene": "CCAP-R", "amplicon": "DRSC15967", "droplet/nuclear area B-score, replicate 1": 0.185}
{"target gene": "CCHa1", "amplicon": "DRSC14821", "droplet/nuclear area B-score, replicate 1": -2.22}
{"target gene": "PGRP-LD + Pmi", "amplicon": "DRSC10512", "droplet/nuclear area B-score, replicate 1": -1.93}
{"target gene": "PGRP-LD + Pmi", "amplicon": "DRSC10513", "droplet/nuclear area B-score, replicate 1": -0.573}
{"target gene": "aspr", "amplicon": "DRSC20689", "droplet/nuclear area B-score, replicate 1": 0.541}
{"target gene": "aspr", "amplicon": "DRSC20690", "droplet/nuclear area B-score, replicate 1": 1.21}
{"target gene": "Gr98c", "amplicon": "DRSC22212", "droplet/nuclear area B-score, replicate 1": -1.19}
{"target gene": "CG1910", "amplicon": "DRSC15400", "droplet/nuclear area B-score, replicate 1": -0.129}
{"target gene": "Muc30E", "amplicon": "DRSC01101", "droplet/nuclear area B-score, replicate 1": 2.02}
{"target gene": "Orct", "amplicon": "DRSC16777", "droplet/nuclear area B-score, replicate 1": 2.32}
{"target gene": "JMJD4", "amplicon": "DRSC03025", "droplet/nuclear area B-score, replicate 1": 0.215}
{"target gene": "rho-4", "amplicon": "DRSC19761", "droplet/nuclear area B-score, replicate 1": -0.198}
{"target gene": "rho-4", "amplicon": "DRSC19762", "droplet/nuclear area B-score, replicate 1": -0.204}

Not a retest: entries from further up.
{"target gene": "msk", "amplicon": "DRSC11340", "droplet/nuclear area B-score, replicate 1": 1.42}
{"target gene": "salto", "amplicon": "DRSC06291", "droplet/nuclear area B-score, replicate 1": 0.012}
{"target gene": "Nmda1", "amplicon": "DRSC07479", "droplet/nuclear area B-score, replicate 1": -0.578}
